# Results from one PubChem assay

From PubChem BioAssay record AID1159506 (NCATS, 2015).

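Genome-wide siRNA knockdown in TC32 Ewing sarcoma cells, comparing luciferase light from an NR0B1-promoter reporter with a CMV-promoter reporter 48 hours after transfection.
Each siRNA was applied at 20 nM.
A z-score of the log NR0B1-over-CMV signal, less the median of siRNAs with the same seed; more negative means a stronger specific loss of the NR0B1 reporter.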

This is part of the screen; most of the strongest results are not listed here.
Sequences are the guide (antisense) strand, without overhang.

UUUGGAUGCAUUCUCAGUG against CYP4B1 read seed-corrected z-score 1.647.
AUCACCAUUAUCAAAGUUC against FSTL1 read seed-corrected z-score 0.8697.
UACCAGAUCUUGAAUGACG against LRTOMT read seed-corrected z-score 1.245.
UAGCCGAUCAUAACGGAGG against B4GALNT1 read seed-corrected z-score -0.2206.
UCAUGGUAAGGGACUCUUC against MDM1 read seed-corrected z-score 0.07752.
UUUGCAACUGUGCAUGAGC against EXOC2 read seed-corrected z-score 0.7016.
UUGAUGUCCACGAAGUACU against SNPH read seed-corrected z-score -0.4132.
UAGAAUGUCGUCGUCCGGC against NRGN read seed-corrected z-score -0.05767.
UCUAUAACCAGAGGGUCUC against FKBP11 read seed-corrected z-score 0.4102.
AUUUCUACCAAAACGAUUG against MFSD11 read seed-corrected z-score 0.5837.
UCAUGGAUAAGUAGGUUGU against OSR1 read seed-corrected z-score -0.3807.
UUGCGGAAAAUUUCCUCCA against CASP1 read seed-corrected z-score 0.8039.
UCGAUGUCCGCAUUGUAGG against LOXL1 read seed-corrected z-score -0.8256.
AUAAGUUUAAGGCUCCCUG against CDC25C read seed-corrected z-score 0.0702.
UGACAGAACAAUGAGGGUG against FUZ read seed-corrected z-score -1.384.
UAGCCUAUUACGUAGGGCC against BUB1 read seed-corrected z-score -0.5824.
UAGAGGCCGAUGACGUCGU against CDC42EP5 read seed-corrected z-score 0.1686.
UUCCUAUUAAGCCUGGUAG against GFM2 read seed-corrected z-score -0.3967.
UCAGUAUUUGCUCCCAUCC against PRDM16 read seed-corrected z-score -0.0447.
UAAGUGUGAGGAAUAAGCA against DDO read seed-corrected z-score 0.6666.
UUCUGGUCUCGUUAAUCUC against LMNB1 read seed-corrected z-score 0.6845.
UUAUAGAUAAGCUUUGUUG against C11orf70 read seed-corrected z-score 0.8527.
AAUGGUACACCCUCCCUUC against ABL1 read seed-corrected z-score 1.539.
UGAUCAUCCAUCCUAUUGC against GPSM2 read seed-corrected z-score -0.6973.
AUGACUUUCAGUUUGCUCG against MAGEH1 read seed-corrected z-score -0.8262.
AAGGCAAUCGAAGAAGGGC against GLTPP1 read seed-corrected z-score 0.2415.
AUCCCUAUCAAUGAGUUGG against PRPH2 read seed-corrected z-score -0.02635.
UAGGCGAUCUGUGAGGUGG against SOX10 read seed-corrected z-score -0.02339.
UUGGUAACUAUCCCUACAC against ZNF518A read seed-corrected z-score 0.5105.
UUGGUAUAAGCAUCUUUUC against L3HYPDH read seed-corrected z-score 1.625.
AAAGCUAAAAUCCAGCAGC against FAXC read seed-corrected z-score 0.8027.
UUUGCUUAAGGAUCCAUUC against DNAJC28 read seed-corrected z-score -0.3374.
AAAGUCAAUGAGGUUCUGG against TSPAN17 read seed-corrected z-score -0.7755.
UACUGGUCCUCAAAGCGGC against RASD2 read seed-corrected z-score 0.3122.
UUCCAUUUCGGUGCAGAAG against OR7C1 read seed-corrected z-score -0.5798.
AAUUGUGCGAGUUUGAGAC against IL17D read seed-corrected z-score 1.802.
AAUCCAUAAUUUGUCAUCC against TSPAN12 read seed-corrected z-score -0.3775.
UAAUAAACAGGAUACACUC against PPP2R4 read seed-corrected z-score -0.1687.
CCAUCCAUCAUCAUGAUCC against METTL15P3 read seed-corrected z-score -1.259.
UGGGUAGUUGGGCAUCACC against ETV3 read seed-corrected z-score -0.4672.

4 of the entries, repeated:

{"strand": "UAGCCGAUCAUAACGGAGG", "target gene": "B4GALNT1", "seed-corrected z-score": "-0.2206"}
{"strand": "AAUCCAUAAUUUGUCAUCC", "target gene": "TSPAN12", "seed-corrected z-score": "-0.3775"}
{"strand": "UACUGGUCCUCAAAGCGGC", "target gene": "RASD2", "seed-corrected z-score": "0.3122"}
{"strand": "UUCUGGUCUCGUUAAUCUC", "target gene": "LMNB1", "seed-corrected z-score": "0.6845"}